One molecule from article PMC3156230 can be followed below.

In the assay the target is RGS3. Put plainly: co-IP; V5-tagged and Flag-tagged proteins co-expressed in transiently transfected HEK 293T cells; lysis buffer with 1% Triton X-100; cleared lysate incubated 1-2 h with anti-Flag M2 beads, washed four times; Western blot with anti-V5.

No constants are given. Whether binding was seen depends on the method and setting. In cells and extracts the contact can be indirect.

B1: C. elegans SYG-2 (receptor, UniProt Q9U3P2 20-1270)
chain: FFLESPSNLSTIAGESITFRCSAEKSPEPIVYSQWKSNTGSLLGYHQEGILPGHQGRFSYIKQNAEELHLKITHVNLDDDGEYECQMLHPEEGPIRAKSFLNIIVPPQLVYFSNYQPNSIIAVKENTPLNITCVVPNVKPEPEVLWYMDGKVMSRDVKQASTPHLNKTFTVYTSLVVQSDRNDHGKVITCEAFQKETDIRITTNTTLDVLFPPSDPTVEILRNPSALRSGDNVTIACSVTGGNPPPDVFWYHENKRLQSHSTLDTRSKEIKNIYSFIASQNDNMAEYECRANNSRTGNPKRKAMKLEVNYPPASVELFGESNIRYGSSANIQCKSLPSNPASQITWIINGRSVPTPTQREFVVENGIVSSSNVSVHSNELSVEAHQINVECMATNPEGSSAKQHVIKIIAPPKAPIITGLEDRKFFEGDIVNVTCEAQGGNPLAELSWYRGSEKHLVKGRKKMKWSQVKKKLVMSLLCLCEVVIMNFFRFSKNVFYFFRFTLFIECGVNGAHNEVAGFSSYSTLALRVDRTMNTQRLKCEATNAALDEPLIESQYLSVYYPPRRVLIRPADSGDQRLLVGKSARLVCGTLSSNPAAHISWQFSRATDDNKVHLGDVSLNETTRDNGFNVENVLSFTPTEEYDGTVVHCIANHPEWKHSVNTSFPLNVMYPPKMLVNDPVTVVMSEGDSFKENLTVRGNPAISLWQWRKNGVPFDHTIGRVFARGAVLSGKQLLSTDAGVYTLTATNSVGSTNITIKLAVEYSARITSISTPVIAATGDTVLLECEADGEPSKANMIHWYKNGEILAAQHRGHKKAILRLNATEQQSGEYTCKADNGIGVPAEGQTFLLVNSAPRVLPVARYAKTAGILGGVAKARCKVYAVPTVEFVWEKDEQLIKKNSSKYSIVNTQIDYSTYESTLWIKNIVPDDYTKKVKCIARNSFGTDHLSIPIIPPTHPDEPFNLTMTNSTLNTISVAWEPRFDGGSDQIFEVKYRRQNDDLIHLVNTTHTNLRLSGLATANTYFFQIRSINARGFASSWTSPVIFATLNEDGVNVAMIRNEKLKLTTWIPYILIFIVLFMLLNVVICCFVCNRTKKRKLREKTEMARTAINGGDVRQVQMYGTMMGNDGMSRRDIDDRPEMSEDEHSVRTMIEVSPNGYMQPIEPMLYESTGLLEYDYQTRSYMGSSQGTRSMTYANVPYPEPPQPSYHSNWNSLQRQSNNNTSPQHHLSTFINPNMGVRAGPINYAQLDGDLV
For B1, the binding entry was “no binding”.
